Measured values: patent CN116023492A
Changes are numbered by the printed parent chain. No constants are given. Whether binding was seen depends on the method and setting. Some entries that bind do so weakly or less than the wild type.

Chains of the proteins cited; added tags and fusions are not shown. Residues count along the entry.
UniProt Q9NZQ7, residues 19-239: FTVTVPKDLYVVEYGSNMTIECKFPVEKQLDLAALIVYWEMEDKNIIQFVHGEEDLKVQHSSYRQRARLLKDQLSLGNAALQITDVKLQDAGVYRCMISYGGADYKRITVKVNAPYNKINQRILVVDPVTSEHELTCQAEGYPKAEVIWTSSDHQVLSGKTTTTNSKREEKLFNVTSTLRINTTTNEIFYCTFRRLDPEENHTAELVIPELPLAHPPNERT

B1: 抗人PDL1纳米抗体 Nb1 (VHH, not shown: small tags and cut ends)
VHH: QVQLQESGGGSAQAGGSLRLSCEVSGDTSSLNILGWFRQAPGKEREGVAGIYTDAGTPTYTYADSVKGRFAFSRDNGQNTVYLEMSSLKPEDTAMYYCAAGTMPVRAATLRPARYIYWGQGTQVTVSS
B2: 抗人PDL1纳米抗体 Nb2 (VHH, not shown: small tags and cut ends)
VHH: QVQLQESGGGSVQAGGSLRLSCIASGVDYNSRTDRMAWFRQVPGKEREGVAAIYTYNNRTYYADSVKGRFTISQDIGKNTVYLQMNSLEPEDTATYYCARDWRFSSGMLDKNMYKYWGQGTQVTVSS
B3: 抗人PDL1纳米抗体 Nb3 (VHH, not shown: small tags and cut ends)
VHH: QVQLQESGGGSVQAGGSLRLSCIASGDDYNLKTDRMVWFRPVPEKEREGVASIYTYNNTTYYADSVKGRFTISQDIGKNTVYLQMNSLKPEDTATYYCARDWSFSSGMLHKNMYKYWGQGTHVTVSS
B4: 抗人PDL1纳米抗体 Nb4 (VHH, not shown: small tags and cut ends)
VHH: QVQLQESGGGSVQAGGSLKLSCTASGYTSGILYMAWFRQAPGKEREAVGCIYPSGRSTVYAVPVEGRFTMSRENRQNTVYLQMDSLKAEDTAVYYCGARPQSCGAPVSTVDYWGQGTQVTVSS
B5: 抗人PDL1纳米抗体 Nb5 (VHH, not shown: small tags and cut ends)
VHH: B1 VHH with A12V, A14P, S30T, A40T, T53F, D54A, F72L, I116T

Molecular target: 人PDL1蛋白 (human) (UniProt Q9NZQ7)
Experiment: indirect ELISA, PDL1 coated at 1 ug/mL, nanobody 1 ug/mL, anti-HA detection

Row | Binder | binding
1 | B1 | binds
2 | B2 | binds
3 | B3 | binds
4 | B4 | binds
5 | B5 | binds
